Source: PubChem BioAssay AID234 (DTP/NCI, 2004)
The list is a part of this screen's results and no random one: it gathers some chemical classes. Other doses and runs of a compound may be missing. T/C: endpoint of the treated group in % of that of the vehicle group. Some entries show no survivor count and are marked so; the dose need not have been tolerated. Schedules are NCI's codes, read here as Q, the interval in days (D) or hours (H), X, the number of doses.

Tested on: C3AKF1 mice, hamster liver cystadenocarcinoma s.c., tumor weight T/C
Test: NCI In Vivo Anticancer Drug Screen. Data for tumor model Cystadenocarcinoma, Liver (No. 1) (Hamster) (subcutaneous) in C3AKF1 (CHKRF1) mice
Settings: T/C endpoint: mean tumor weight, schedule: Q01DX010 (ip), vehicle: carboxymethylcellulose (CMC), evaluation day not shown, higher T/C = larger tumour
Protocol: The antitumor activity of compounds was measured in mice bearing transplantable tumors. Survival or tumor size were measured and the results are expressed as the measurement made in the treated group (T) divided by the measurement made in the vehicle treated control group (C). The tumor model used in this assay is Cystadenocarcinoma, Liver (No. 1) (Hamster) (subcutaneous) in C3AKF1 (CHKRF1) mice

Q: How did the T/C (dose: 12.5 mg/kg/injection) turn out when ClCCN(CCCl)Cc1nc2cc(Cl)c(Cl)cc2[nH]1 was run?
A: 74 % of control [survivor count not shown]

Q: What about the T/C (dose: 25.0 mg/kg/injection) of the same compound?
A: 94 % of control [survivor count not shown]

Q: And the T/C (dose: 50.0 mg/kg/injection)?
A: 114 % of control [survivor count not shown]

Q: What about the T/C (dose: 100.0 mg/kg/injection) of the same compound?
A: 103 % of control [survivor count not shown]

Q: With Oc1ccc(Cl)cc1CN(CCCl)CCCl as the compound, how does the T/C (dose: 2.5 mg/kg/injection) read?
A: 129 % of control [survivor count not shown]

Q: What about the T/C (dose: 5.0 mg/kg/injection) of the same compound?
A: 104 % of control [survivor count not shown]

Q: What about the T/C (dose: 10.0 mg/kg/injection) of the same compound?
A: 113 % of control [survivor count not shown]

Q: What about the T/C (dose: 20.0 mg/kg/injection) of the same compound?
A: 105 % of control [survivor count not shown]

Q: What does the source list for O=C(O)C(=O)Cc1ccc(N(CCCl)CCCl)cc1?
A: T/C (dose: 6.0 mg/kg/injection): 88 % of control [survivor count not shown]; T/C (dose: 12.0 mg/kg/injection): 75 % of control [survivor count not shown]

Q: COc1cccc(N(CCCl)CCCl)c1OC was tested. Which T/C (dose: 15.0 mg/kg/injection) did it give?
A: 75 % of control [survivor count not shown]

Q: And the T/C (dose: 30.0 mg/kg/injection)?
A: 87 % of control [survivor count not shown]

Q: And the T/C (dose: 60.0 mg/kg/injection)?
A: 70 % of control [survivor count not shown]

Q: What about the T/C (dose: 80.0 mg/kg/injection) of the same compound?
A: 75 % of control [survivor count not shown]

Q: ClCCN(CCCl)Cc1nc2ccc(Cl)cc2[nH]1 was tested. Which T/C (dose: 5.0 mg/kg/injection) did it give?
A: 109 % of control [survivor count not shown]

Q: And the T/C (dose: 10.0 mg/kg/injection)?
A: 130 % of control [survivor count not shown]
